Data as given in article PMC11117474.

Tests used:
[1] = molecular target: armadillo-repeat domain of plakophilin 1 (ARM-PKP1); assay: far-UV circular dichroism (complex against sum of the isolated proteins); RYBP 20 uM, ARM-PKP1 2 uM; 25 °C; 20 mM Tris pH 7.5, 5 mM TCEP, 150 mM NaCl; 0.1 cm cell; both purified
[2] = molecular target: armadillo-repeat domain of plakophilin 1 (ARM-PKP1); assay: steady-state fluorescence spectra (complex against sum of the isolated proteins); RYBP 20 uM, ARM-PKP1 2 uM; 25 °C; 20 mM Tris pH 7.5, 5 mM TCEP, 150 mM NaCl; excitation at 280 or 295 nm; both purified

binding [1]: binds
binding [2]: binds
B1: RYBP (RING1A and YY1 binding protein) (protein, UniProt Q8N488 1-228)
chain: MTMGDKKSPTRPKRQAKPAADEGFWDCSVCTFRNSAEAFKCSICDVRKGTSTRKPRINSQLVAQQVAQQYATPPPPKKEKKEKVEKQDKEKPEKDKEISPSVTKKNTNKKTKPKSDILKDPPSEANSIQSANATTKTSETNHTSRPRLKNVDRSTAQQLAVTVGNVTVIITDFKEKTRSSSTSSSTVTSSAGSEQQNQSSSGSESTDKGSSRSSTPKGDMSAVNDESF

Results are given in words; binding and its absence hold for the method and conditions named. Binding calls can cover weak binding; strength is not graded here.
